PubChem BioAssay AID1259308, NCATS | 2017
Shown is an unselected part of about 59,000 reagents. About 1,510 of all reagents (2.6%) count as active. 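Calls use total luciferase alone and ignore viability, so some active siRNAs may act by altering cell number.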 Unmarked entries are inactive. Reagents against one gene are numbered here. No sequences are given here.

Aim: 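Knock-downs that increase output of a recombinant reporter protein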 (primary screen)
Cell system: human HEK293 embryonic kidney cells stably expressing firefly luciferase (HEK-CMV-Luc2-Hygro)
Reagents: single siRNA against human genes, 0.8 pmol siRNA per well
Duration: 72 h
Measured: 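Luciferase light (ONE-Glo) measured on one replicate plate set and viability (CellTiter-Glo) on the other, scaled to a negative control siRNA, with robust z-scores and luciferase per cell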
Scale: total luciferase, z-score and total luciferase, % of control: higher = more reporter protein produced; luciferase per cell, z-score: higher = more reporter output per viable cell; viable cells, % of control: higher = more viable cells
Call rule: 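An siRNA counts as active if its total luciferase robust z-score exceeds 3; genes with two or more such siRNAs out of three were retested with fresh siRNAs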
Meaning of the calls: active = raised luciferase; inactive = no rise

| target gene | siRNA no. | total luciferase, z-score | total luciferase, % of control | luciferase per cell, z-score | viable cells, % of control |
| --- | --- | --- | --- | --- | --- |
| WDR53 | 1 | -2.01 | 41.9 | -2.21 | 83.7 |
| WDR53 | 2 | -1.91 | 43.9 | -0.248 | 52.4 |
| WDR53 | 3 | -0.136 | 79.2 | 0.181 | 84.4 |
| ORAI3 | 1 | -0.597 | 70 | 0.313 | 72 |
| ORAI3 | 2 | 0.389 | 89.6 | 0.191 | 95.2 |
| ORAI3 | 3 | -0.982 | 62.4 | -0.628 | 82.2 |
| OTOP1 | 1 | -0.835 | 65.3 | -0.579 | 85 |
| OTOP1 | 2 | 0.578 | 93.4 | 0.368 | 94.7 |
| OTOP1 | 3 | 0.237 | 86.6 | -0.402 | 108 |
| DNAJC27-AS1 | 1 | 0.476 | 91.4 | 0.707 | 84.7 |
| DNAJC27-AS1 | 2 | -0.568 | 70.6 | 0.164 | 75.5 |
| DNAJC27-AS1 | 3 | -0.881 | 64.4 | -0.306 | 78 |
| ZDHHC17 | 1 | -0.394 | 74.1 | -0.324 | 90.1 |
| ZDHHC17 | 2 | 1.51 | 112 | 1.03 | 95.3 |
| ZDHHC17 | 3 | -2.46 | 32.9 | -1.81 | 59.2 |
| FOLH1B | 1 | -0.612 | 69.7 | 0.0993 | 75.9 |
| FOLH1B | 2 | -1.07 | 60.6 | -1.08 | 90 |
| FOLH1B | 3 | -0.709 | 67.8 | -1.11 | 102 |
| NDUFAF3 | 1 | 0.689 | 95.6 | 0.746 | 87.8 |
| NDUFAF3 | 2 | -0.873 | 64.5 | -0.833 | 89.8 |
| NDUFAF3 | 3 | 1.5 | 112 | 2.48 | 65 |
| GJD4 | 1 | -2.33 | 35.5 | -2.31 | 73 |
| GJD4 | 2 | 0.55 | 92.8 | 0.777 | 84.5 |
| GJD4 | 3 | -0.689 | 68.2 | -0.62 | 89.7 |

No new results follow: 3 of the entries above.
| target gene | siRNA no. | total luciferase, z-score | total luciferase, % of control | luciferase per cell, z-score | viable cells, % of control |
| --- | --- | --- | --- | --- | --- |
| DNAJC27-AS1 | 3 | -0.881 | 64.4 | -0.306 | 78 |
| ZDHHC17 | 1 | -0.394 | 74.1 | -0.324 | 90.1 |
| ZDHHC17 | 2 | 1.51 | 112 | 1.03 | 95.3 |

The list goes on:
| target gene | siRNA no. | total luciferase, z-score | total luciferase, % of control | luciferase per cell, z-score | viable cells, % of control |
| --- | --- | --- | --- | --- | --- |
| CLLU1 | 1 | -0.791 | 66.2 | -0.0976 | 75.9 |
| CLLU1 | 2 | 0.444 | 90.7 | 0.514 | 88.5 |
| CLLU1 | 3 | 0.999 | 102 | 3.03 | 51.2 |
| OR2A14 | 1 | 0.975 | 101 | 0.607 | 96.5 |
| OR2A14 | 2 | 0.675 | 95.3 | 1.43 | 73.2 |
| OR2A14 | 3 | -0.384 | 74.2 | -0.0218 | 83.4 |
| HLCS | 1 | -1.27 | 56.6 | -1.38 | 91.1 |
| HLCS | 2 | -1.79 | 46.3 | 0.12 | 50.2 |
| HLCS | 3 | 0.497 | 91.8 | 1.03 | 78.2 |
| TWIST1 | 1 | 0.909 | 100 | 1.32 | 79 |
| TWIST1 | 2 | 0.58 | 93.4 | 1.49 | 70.5 |
| TWIST1 | 3 | 0.537 | 92.6 | 0.558 | 89.3 |
| BCL2L2 | 1 | 1.93 | 120 | 0.854 | 107 |
| BCL2L2 | 2 | 0.259 | 87 | 0.22 | 91.8 |
| BCL2L2 | 3 | -0.17 | 78.5 | -0.418 | 97.9 |
| SLC36A3 | 1 | -0.708 | 67.8 | -0.0176 | 76.1 |
| SLC36A3 | 2 | -0.557 | 70.8 | -0.074 | 80.7 |
| SLC36A3 | 3 | 0.448 | 90.8 | -0.139 | 105 |
| CDH8 | 1 | 0.93 | 100 | 0.512 | 98 |
| CDH8 | 2 | -1.37 | 54.6 | -0.637 | 72.1 |
| CDH8 | 3 | 0.447 | 90.8 | -0.404 | 113 |
| ITIH1 | 1 | -0.968 | 62.6 | -1.48 | 103 |
| ITIH1 | 2 | -0.754 | 66.9 | -0.818 | 92.7 |
| ITIH1 | 3 | 0.0461 | 82.8 | -0.0916 | 94.8 |
| YIPF5 | 1 | 1.37 | 109 | 0.643 | 103 |
| YIPF5 | 2 | 0.182 | 85.5 | 0.0957 | 93.2 |
| YIPF5 | 3 | 0.568 | 93.2 | 0.889 | 82.4 |
| UBE2I | 1 | -0.959 | 62.8 | -0.794 | 86.5 |
| UBE2I | 2 | 2.46 | 131 | 2.53 | 75 |
| UBE2I | 3 | -0.345 | 75 | 0.164 | 80.3 |
| PDLIM3 | 1 | -0.0785 | 80.3 | -0.503 | 102 |
| PDLIM3 | 2 | 2.75 | 137 | 1.87 | 93.2 |
| PDLIM3 | 3 | -0.523 | 71.5 | -0.459 | 90.2 |
